Some of the results follow.

Protein sequences, listed by entry. Tags and fused reporters are not part of them. Lines headed by an entry give the natural chain unless they say otherwise; changes in a name come on top.
UniProt Q9BQD7: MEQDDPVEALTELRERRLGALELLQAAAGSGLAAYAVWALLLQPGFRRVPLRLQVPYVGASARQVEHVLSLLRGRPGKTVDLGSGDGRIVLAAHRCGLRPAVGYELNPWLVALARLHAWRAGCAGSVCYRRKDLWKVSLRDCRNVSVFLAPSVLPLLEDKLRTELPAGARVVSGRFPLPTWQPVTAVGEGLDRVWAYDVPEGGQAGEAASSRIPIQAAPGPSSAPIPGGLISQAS
UniProt Q9BXS5: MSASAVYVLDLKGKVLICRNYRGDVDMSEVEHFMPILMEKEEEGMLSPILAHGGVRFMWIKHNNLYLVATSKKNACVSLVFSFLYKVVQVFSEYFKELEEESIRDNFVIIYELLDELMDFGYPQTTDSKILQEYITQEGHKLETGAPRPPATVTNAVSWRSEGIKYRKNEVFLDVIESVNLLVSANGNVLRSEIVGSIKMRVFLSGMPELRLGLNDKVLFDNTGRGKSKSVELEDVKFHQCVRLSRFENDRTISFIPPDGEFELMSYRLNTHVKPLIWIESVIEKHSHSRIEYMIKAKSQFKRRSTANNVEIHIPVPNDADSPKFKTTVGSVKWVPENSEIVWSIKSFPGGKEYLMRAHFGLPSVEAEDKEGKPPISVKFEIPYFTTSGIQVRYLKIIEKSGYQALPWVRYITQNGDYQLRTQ
UniProt P02656: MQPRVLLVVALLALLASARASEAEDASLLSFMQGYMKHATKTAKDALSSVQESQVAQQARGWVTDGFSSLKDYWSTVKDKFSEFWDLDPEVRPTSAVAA
UniProt A6QL64: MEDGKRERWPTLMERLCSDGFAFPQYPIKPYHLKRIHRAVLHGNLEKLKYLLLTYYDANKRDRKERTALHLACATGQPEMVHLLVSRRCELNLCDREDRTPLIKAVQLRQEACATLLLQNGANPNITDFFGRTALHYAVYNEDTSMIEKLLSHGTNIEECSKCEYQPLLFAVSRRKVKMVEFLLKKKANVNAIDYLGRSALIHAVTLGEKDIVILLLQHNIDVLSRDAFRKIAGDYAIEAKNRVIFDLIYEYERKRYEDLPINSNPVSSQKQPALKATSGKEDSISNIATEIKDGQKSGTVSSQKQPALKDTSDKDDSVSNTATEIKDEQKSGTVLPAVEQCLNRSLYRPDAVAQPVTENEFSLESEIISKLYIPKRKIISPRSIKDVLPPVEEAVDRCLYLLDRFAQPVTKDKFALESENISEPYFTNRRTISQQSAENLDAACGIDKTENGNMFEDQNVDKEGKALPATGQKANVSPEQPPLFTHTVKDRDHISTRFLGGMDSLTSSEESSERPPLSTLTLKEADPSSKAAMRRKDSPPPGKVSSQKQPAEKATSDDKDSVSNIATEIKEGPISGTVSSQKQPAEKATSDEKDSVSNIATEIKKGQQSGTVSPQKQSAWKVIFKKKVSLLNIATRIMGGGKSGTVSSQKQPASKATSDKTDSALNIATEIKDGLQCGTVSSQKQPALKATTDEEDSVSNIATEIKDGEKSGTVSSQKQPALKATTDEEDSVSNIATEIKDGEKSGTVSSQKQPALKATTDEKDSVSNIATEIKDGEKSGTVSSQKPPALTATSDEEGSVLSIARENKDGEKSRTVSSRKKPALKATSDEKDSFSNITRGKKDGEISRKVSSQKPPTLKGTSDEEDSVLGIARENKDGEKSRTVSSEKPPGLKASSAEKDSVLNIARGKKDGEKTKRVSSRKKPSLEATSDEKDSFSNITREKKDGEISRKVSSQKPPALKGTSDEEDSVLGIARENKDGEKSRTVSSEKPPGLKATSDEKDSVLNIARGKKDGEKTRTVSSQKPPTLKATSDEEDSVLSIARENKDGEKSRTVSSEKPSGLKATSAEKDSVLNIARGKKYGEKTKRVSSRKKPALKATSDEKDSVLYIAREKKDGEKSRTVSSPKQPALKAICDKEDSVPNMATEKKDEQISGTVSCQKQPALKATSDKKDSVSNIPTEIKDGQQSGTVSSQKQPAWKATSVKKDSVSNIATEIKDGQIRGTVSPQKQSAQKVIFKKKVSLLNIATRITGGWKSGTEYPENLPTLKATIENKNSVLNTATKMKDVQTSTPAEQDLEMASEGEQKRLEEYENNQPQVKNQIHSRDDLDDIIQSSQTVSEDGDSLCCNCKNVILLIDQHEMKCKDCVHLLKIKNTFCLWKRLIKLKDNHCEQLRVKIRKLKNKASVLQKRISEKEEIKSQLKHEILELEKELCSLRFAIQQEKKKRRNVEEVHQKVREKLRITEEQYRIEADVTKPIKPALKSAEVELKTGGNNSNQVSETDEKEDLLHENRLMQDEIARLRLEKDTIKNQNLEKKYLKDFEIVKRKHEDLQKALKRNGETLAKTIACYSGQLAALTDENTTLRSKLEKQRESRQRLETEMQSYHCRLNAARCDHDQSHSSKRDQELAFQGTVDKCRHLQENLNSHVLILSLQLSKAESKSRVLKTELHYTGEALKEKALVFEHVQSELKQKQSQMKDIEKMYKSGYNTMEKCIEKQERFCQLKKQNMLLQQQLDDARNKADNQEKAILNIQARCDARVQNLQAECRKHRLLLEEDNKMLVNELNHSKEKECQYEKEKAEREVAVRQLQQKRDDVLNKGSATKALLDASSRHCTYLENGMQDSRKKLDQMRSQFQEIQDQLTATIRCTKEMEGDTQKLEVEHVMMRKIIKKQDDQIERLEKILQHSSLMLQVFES
UniProt P02649, whole entry, looked up: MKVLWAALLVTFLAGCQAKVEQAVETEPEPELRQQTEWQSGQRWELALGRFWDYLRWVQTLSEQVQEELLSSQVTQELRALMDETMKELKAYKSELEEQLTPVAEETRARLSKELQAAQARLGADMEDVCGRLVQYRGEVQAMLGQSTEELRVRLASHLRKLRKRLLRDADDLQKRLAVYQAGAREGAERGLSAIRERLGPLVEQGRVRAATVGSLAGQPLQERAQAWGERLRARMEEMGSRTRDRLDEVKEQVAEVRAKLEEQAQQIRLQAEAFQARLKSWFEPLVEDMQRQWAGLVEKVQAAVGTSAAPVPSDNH
UniProt O95445: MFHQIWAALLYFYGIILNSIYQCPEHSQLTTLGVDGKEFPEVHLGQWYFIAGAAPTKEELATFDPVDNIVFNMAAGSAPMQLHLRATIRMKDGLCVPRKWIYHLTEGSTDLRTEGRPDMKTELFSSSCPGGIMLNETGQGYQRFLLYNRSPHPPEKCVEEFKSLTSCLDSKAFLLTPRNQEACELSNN
UniProt Q0VD83: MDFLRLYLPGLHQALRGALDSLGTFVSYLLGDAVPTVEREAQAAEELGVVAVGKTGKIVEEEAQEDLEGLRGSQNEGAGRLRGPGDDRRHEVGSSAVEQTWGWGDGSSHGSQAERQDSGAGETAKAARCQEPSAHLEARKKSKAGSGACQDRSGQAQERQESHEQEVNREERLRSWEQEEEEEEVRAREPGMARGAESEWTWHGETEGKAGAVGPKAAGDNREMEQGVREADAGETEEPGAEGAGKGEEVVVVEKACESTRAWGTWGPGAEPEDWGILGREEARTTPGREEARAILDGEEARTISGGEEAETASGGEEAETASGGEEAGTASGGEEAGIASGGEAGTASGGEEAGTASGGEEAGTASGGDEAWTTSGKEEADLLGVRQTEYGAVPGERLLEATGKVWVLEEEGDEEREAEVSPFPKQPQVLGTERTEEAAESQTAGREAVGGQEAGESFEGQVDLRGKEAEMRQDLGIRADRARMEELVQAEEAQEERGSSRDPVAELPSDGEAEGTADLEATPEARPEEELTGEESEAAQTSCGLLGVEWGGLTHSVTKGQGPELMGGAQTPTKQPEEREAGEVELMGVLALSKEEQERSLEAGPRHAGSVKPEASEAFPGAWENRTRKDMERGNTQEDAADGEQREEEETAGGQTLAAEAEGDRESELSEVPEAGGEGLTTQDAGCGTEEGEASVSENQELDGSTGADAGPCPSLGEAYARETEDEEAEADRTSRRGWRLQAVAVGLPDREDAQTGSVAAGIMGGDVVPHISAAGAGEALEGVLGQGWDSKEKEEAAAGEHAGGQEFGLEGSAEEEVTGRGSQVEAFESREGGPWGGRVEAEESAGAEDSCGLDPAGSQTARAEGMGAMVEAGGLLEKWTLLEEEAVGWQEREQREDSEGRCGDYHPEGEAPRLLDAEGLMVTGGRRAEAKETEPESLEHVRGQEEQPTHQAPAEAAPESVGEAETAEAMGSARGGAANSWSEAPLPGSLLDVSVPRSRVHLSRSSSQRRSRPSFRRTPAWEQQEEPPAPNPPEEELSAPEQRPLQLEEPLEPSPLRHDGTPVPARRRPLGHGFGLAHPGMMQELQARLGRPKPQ
UniProt Q9H0R1: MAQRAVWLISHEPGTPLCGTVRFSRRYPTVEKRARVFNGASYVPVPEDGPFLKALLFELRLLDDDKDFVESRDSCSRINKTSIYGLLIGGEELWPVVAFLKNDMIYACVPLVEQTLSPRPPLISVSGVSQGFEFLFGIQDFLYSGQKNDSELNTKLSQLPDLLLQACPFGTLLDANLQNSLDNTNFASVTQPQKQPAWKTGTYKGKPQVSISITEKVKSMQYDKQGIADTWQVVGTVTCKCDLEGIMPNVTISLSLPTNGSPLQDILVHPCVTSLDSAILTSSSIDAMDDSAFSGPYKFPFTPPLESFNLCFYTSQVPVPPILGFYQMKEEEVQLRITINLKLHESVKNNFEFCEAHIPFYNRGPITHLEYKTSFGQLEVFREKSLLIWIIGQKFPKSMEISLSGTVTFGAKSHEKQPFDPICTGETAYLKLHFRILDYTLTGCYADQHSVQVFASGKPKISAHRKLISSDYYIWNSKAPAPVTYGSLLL

Compound in the assay: c1cn2cc(-c3ccc4cn[nH]c4c3)nc(Nc3ccc(N4CCOCC4)cc3)c2n1 [entospletinib]
Kind of assay: log2 fold change, soluble protein after heating vs DMSO (PISA); higher = thermal stabilisation; K562 cells, 10 uM, 30 min; active = over 0.2 and 3.5 SD of the protein, either way, in both replicates (recomputed). In outline:
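K562 cells at 2×10^6 cells/mL were treated for 30 min with 10 μM compound, and aliquots were heated for 3 min over 48°C-58°C before pooling. Extraction used PBS with 0.5% NP-40 at 4°C, and soluble protein was the supernatant after 21,000xg for 90 min, measured by TMTpro 16plex LC-MS/MS with channel sums equalised. Thermal stability values, relative to control samples and from duplicates, are log2 fold changes.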
Regarding ANTKMT (UniProt Q9BQD7), the log2 fold change is inactive: 0.114.

Take AP1M1 (UniProt Q9BXS5): the log2 fold change was inactive: 0.

APOC3 (UniProt P02656): the log2 fold change was inactive: 0.228.

Take ANKRD36 (UniProt A6QL64): the log2 fold change was inactive: 0.233.

APOE (UniProt P02649): the log2 fold change is inactive: 0.107.

As for APOM (UniProt O95445), the log2 fold change was inactive: 0.223.

In the case of ANAPC16 (UniProt Q96DE5), the log2 fold change is inactive: -0.005.

Turning to APOBR (UniProt Q0VD83), the log2 fold change was inactive: 0.015.

AP5M1 (UniProt Q9H0R1): the log2 fold change is inactive: 0.024.

The record behind these values is the supplement of paper PMC10849652.
